In PMC10774444, “BPG4 regulates chloroplast development and homeostasis by suppressing GLK transcription factors and involving light and brassinosteroid signaling”:
No constants are given. Whether binding was seen depends on the method and setting. In cells and extracts the contact can be indirect. Binding can be weak; no strength is given. Where a sequence is shown, tags or fusion partners need not be part of it.

Columns and labels:
[1] = target: T1, GLK1-GFP (Arabidopsis thaliana) (UniProt Q9SIV3); experiment: co-IP; extracts of 14-day-old Arabidopsis seedlings (35S:GLK1-GFP/glk1glk2 or 35S:GLK2-GFP, WT as control); GLK1/2-GFP immunoprecipitated with GFP-Trap A; blots with anti-GFP and anti-BPG4
T1 sequence: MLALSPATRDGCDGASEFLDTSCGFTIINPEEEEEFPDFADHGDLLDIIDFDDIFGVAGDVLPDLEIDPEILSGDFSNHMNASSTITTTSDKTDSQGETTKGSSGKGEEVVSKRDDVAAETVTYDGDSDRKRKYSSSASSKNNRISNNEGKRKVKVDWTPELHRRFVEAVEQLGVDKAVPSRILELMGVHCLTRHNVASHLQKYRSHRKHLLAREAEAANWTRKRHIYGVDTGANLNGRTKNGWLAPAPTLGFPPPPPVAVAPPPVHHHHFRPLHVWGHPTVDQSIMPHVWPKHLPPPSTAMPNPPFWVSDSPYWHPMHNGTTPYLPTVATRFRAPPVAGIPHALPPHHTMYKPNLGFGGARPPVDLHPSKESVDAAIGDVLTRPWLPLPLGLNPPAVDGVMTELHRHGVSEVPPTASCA

[2] = target: T2, GLK2-GFP (Arabidopsis thaliana) (UniProt Q9FFH0); experiment: as above
T2 sequence: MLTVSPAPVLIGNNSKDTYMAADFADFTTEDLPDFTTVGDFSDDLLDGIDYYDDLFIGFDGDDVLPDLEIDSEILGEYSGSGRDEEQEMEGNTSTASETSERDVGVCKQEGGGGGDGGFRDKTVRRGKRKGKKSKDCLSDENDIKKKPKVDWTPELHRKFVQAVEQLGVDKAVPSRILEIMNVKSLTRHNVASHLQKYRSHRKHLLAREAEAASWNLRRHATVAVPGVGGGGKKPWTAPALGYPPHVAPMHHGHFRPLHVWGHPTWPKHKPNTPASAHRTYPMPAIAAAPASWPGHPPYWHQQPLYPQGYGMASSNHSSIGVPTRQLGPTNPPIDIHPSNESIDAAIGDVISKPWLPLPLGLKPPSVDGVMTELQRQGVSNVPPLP

binding [1]: binds | binding [2]: binds
Substance: endogenous BPG4 protein
